Reference: paper PMC10322693
No constants are given. Whether binding was seen depends on the method and setting. In cells and extracts the contact can be indirect. Some results given as binding are weak or reduced against the parent protein; the word gives no strength. Sequences can lack the tags named with a protein.

Amino acid sequences for entries named in this document (tags omitted).
UniProt Q9DBL9: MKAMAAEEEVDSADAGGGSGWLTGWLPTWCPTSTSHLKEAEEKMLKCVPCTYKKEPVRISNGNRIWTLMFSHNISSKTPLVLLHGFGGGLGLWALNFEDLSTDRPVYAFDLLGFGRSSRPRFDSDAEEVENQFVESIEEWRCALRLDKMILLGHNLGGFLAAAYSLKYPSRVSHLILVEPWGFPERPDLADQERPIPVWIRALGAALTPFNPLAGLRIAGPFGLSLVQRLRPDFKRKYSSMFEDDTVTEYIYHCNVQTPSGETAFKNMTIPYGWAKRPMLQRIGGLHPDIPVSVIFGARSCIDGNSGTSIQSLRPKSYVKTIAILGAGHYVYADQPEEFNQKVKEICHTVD

Tests used:
[1] = biological target: T1, FLAG-PNPLA2 (mouse), overexpressed in HEK293T cells (mouse) (UniProt Q8BJ56); test: co-IP; HEK293T cells coexpressing His-CGI58 and FLAG-PNPLA2 or FLAG-PNPLA9; lysate in 100 mM NaCl, 50 mM Tris-HCl pH 7.2, 1% Triton X-100, 2 mM β-mercaptoethanol; IP with anti-FLAG overnight at 4°C, WB with anti-His
T1 sequence: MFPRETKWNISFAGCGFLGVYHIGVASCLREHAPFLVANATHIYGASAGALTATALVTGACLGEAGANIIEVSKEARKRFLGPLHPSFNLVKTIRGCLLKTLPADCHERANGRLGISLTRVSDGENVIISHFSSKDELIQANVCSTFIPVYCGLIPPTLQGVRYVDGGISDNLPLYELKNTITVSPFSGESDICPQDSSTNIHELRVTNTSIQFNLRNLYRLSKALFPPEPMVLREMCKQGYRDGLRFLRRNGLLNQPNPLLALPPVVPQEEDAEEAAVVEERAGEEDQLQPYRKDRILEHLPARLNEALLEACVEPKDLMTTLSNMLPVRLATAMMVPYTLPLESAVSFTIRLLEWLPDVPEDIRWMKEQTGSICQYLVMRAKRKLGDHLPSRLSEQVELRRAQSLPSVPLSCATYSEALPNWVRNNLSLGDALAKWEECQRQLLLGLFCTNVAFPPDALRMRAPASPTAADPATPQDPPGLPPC

[2] = biological target: T2, FLAG-PNPLA9 (mouse), overexpressed in HEK293T cells (mouse) (UniProt P97819); test: as above
T2 sequence: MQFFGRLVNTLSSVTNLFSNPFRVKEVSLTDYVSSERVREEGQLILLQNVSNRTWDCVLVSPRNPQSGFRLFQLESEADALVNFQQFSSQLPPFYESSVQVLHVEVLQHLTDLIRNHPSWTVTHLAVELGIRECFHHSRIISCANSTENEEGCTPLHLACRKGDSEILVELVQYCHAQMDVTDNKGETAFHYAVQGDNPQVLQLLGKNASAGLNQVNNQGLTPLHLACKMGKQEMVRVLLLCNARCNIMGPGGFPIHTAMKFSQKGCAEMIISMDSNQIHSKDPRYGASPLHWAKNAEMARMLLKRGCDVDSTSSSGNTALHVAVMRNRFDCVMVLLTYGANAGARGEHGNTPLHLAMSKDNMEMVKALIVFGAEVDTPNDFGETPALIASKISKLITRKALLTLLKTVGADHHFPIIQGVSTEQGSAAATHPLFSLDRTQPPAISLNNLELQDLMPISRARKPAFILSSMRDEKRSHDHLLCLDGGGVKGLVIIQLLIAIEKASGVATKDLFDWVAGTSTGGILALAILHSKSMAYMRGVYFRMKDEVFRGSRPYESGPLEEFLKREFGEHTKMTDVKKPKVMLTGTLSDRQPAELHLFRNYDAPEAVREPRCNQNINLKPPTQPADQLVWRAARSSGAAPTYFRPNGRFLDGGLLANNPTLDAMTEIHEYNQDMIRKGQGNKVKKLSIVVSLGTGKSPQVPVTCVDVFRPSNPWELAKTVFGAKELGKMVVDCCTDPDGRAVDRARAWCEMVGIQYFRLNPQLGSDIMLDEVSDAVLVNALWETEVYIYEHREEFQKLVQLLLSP

binding [1]: binds
binding [2]: binds
Substance: His-CGI58 (mouse), overexpressed in HEK293T cells (from UniProt Q9DBL9 1-351)
